No constants are given. Whether binding was seen depends on the method and setting. In cells and extracts the contact can be indirect. A yes stands for co-enrichment or nearness to the bait. Other partners may have been found. Sequences can lack the tags named with a protein. Each block holds one binder with its values, some of them ahead of it.
Target: FLAG-V5-tagged U2-B” (FV5-U2-B”) (UniProt P08579)
Experiment: affinity purification with mass spectrometry; in vitro splicing reaction of NEB” nuclear extract with AdML pre-mRNA and ATPγS, Sephacryl-S500 gel filtration, pooled spliceosome fractions on anti-FLAG M2 Affinity Gel, mass spectrometry; two independent experiments

Protein sequences, listed by entry. Tags and fused reporters are not part of them.
UniProt P08579: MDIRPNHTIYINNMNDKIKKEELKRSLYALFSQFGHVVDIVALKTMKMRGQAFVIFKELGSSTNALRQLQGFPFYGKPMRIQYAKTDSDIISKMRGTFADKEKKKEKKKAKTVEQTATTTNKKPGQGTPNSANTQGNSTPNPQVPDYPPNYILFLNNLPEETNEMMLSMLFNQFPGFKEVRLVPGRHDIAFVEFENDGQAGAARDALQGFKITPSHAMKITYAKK

B1: ACIN1 (protein, UniProt Q9UKV3 1-1341)
chain: MWRRKHPRTSGGTRGVLSGNRGVEYGSGRGHLGTFEGRWRKLPKMPEAVGTDPSTSRKMAELEEVTLDGKPLQALRVTDLKAALEQRGLAKSGQKSALVKRLKGALMLENLQKHSTPHAAFQPNSQIGEEMSQNSFIKQYLEKQQELLRQRLEREAREAAELEEASAESEDEMIHPEGVASLLPPDFQSSLERPELELSRHSPRKSSSISEEKGDSDDEKPRKGERRSSRVRQARAAKLSEGSQPAEEEEDQETPSRNLRVRADRNLKTEEEEEEEEEEEEDDEEEEGDDEGQKSREAPILKEFKEEGEEIPRVKPEEMMDERPKTRSQEQEVLERGGRFTRSQEEARKSHLARQQQEKEMKTTSPLEEEEREIKSSQGLKEKSKSPSPPRLTEDRKKASLVALPEQTASEEETPPPLLTKEASSPPPHPQLHSEEEIEPMEGPAPAVLIQLSPPNTDADTRELLVSQHTVQLVGGLSPLSSPSDTKAESPAEKVPEESVLPLVQKSTLADYSAQKDLEPESDRSAQPLPLKIEELALAKGITEECLKQPSLEQKEGRRASHTLLPSHRLKQSADSSSSRSSSSSSSSSRSRSRSPDSSGSRSHSPLRSKQRDVAQARTHANPRGRPKMGSRSTSESRSRSRSRSRSASSNSRKSLSPGVSRDSSTSYTETKDPSSGQEVATPPVPQLQVCEPKERTSTSSSSVQARRLSQPESAEKHVTQRLQPERGSPKKCEAEEAEPPAATQPQTSETQTSHLPESERIHHTVEEKEEVTMDTSENRPENDVPEPPMPIADQVSNDDRPEGSVEDEEKKESSLPKSFKRKISVVSATKGVPAGNSDTEGGQPGRKRRWGASTATTQKKPSISITTESLKSLIPDIKPLAGQEAVVDLHADDSRISEDETERNGDDGTHDKGLKICRTVTQVVPAEGQENGQREEEEEEKEPEAEPPVPPQVSVEVALPPPAEHEVKKVTLGDTLTRRSISQQKSGVSITIDDPVRTAQVPSPPRGKISNIVHISNLVRPFTLGQLKELLGRTGTLVEEAFWIDKIKSHCFVTYSTVEEAVATRTALHGVKWPQSNPKFLCADYAEQDELDYHRGLLVDRPSETKTEEQGIPRPLHPPPPPPVQPPQHPRAEQREQERAVREQWAEREREMERRERTRSEREWDRDKVREGPRSRSRSRDRRRKERAKSKEKKSEKKEKAQEEPPAKLLDDLFRKTKAAPCIYWLPLTDSQIVQKEAERAERAKEREKRRKEQEEEEQKEREKEAERERNRQLEREKRREHSRERDRERERERERDRGDRDRDRERDRERGRERDRRDTKRHSRSRSRSTPVRDRGGRR
binding: binds

B3: HIST1H1T (protein, UniProt P22492 1-207)
chain: MSETVPAASASAGVAAMEKLPTKKRGRKPAGLISASRKVPNLSVSKLITEALSVSQERVGMSLVALKKALAAAGYDVEKNNSRIKLSLKSLVNKGILVQTRGTGASGSFKLSKKVIPKSTRSKAKKSVSAKTKKLVLSRDSKSPKTAKTNKRAKKPRATTPKTVRSGRKAKGAKGKQQQKSPVKARASKSKLTQHHEVNVRKATSKK
binding: binds

Next, values leading:

binding: binds
B2: RB1 (protein, UniProt P06400 1-928)
chain: MPPKTPRKTAATAAAAAAEPPAPPPPPPPEEDPEQDSGPEDLPLVRLEFEETEEPDFTALCQKLKIPDHVRERAWLTWEKVSSVDGVLGGYIQKKKELWGICIFIAAVDLDEMSFTFTELQKNIEISVHKFFNLLKEIDTSTKVDNAMSRLLKKYDVLFALFSKLERTCELIYLTQPSSSISTEINSALVLKVSWITFLLAKGEVLQMEDDLVISFQLMLCVLDYFIKLSPPMLLKEPYKTAVIPINGSPRTPRRGQNRSARIAKQLENDTRIIEVLCKEHECNIDEVKNVYFKNFIPFMNSLGLVTSNGLPEVENLSKRYEEIYLKNKDLDARLFLDHDKTLQTDSIDSFETQRTPRKSNLDEEVNVIPPHTPVRTVMNTIQQLMMILNSASDQPSENLISYFNNCTVNPKESILKRVKDIGYIFKEKFAKAVGQGCVEIGSQRYKLGVRLYYRVMESMLKSEEERLSIQNFSKLLNDNIFHMSLLACALEVVMATYSRSTSQNLDSGTDLSFPWILNVLNLKAFDFYKVIESFIKAEGNLTREMIKHLERCEHRIMESLAWLSDSPLFDLIKQSKDREGPTDHLESACPLNLPLQNNHTAADMYLSPVRSPKKKGSTTRVNSTANAETQATSAFQTQKPLKSTSLSLFYKKVYRLAYLRLNTLCERLLSEHPELEHIIWTLFQHTLQNEYELMRDRHLDQIMMCSMYGICKVKNIDLKFKIIVTAYKDLPHAVQETFKRVLIKEEEYDSIIVFYNSVFMQRLKTNILQYASTRPPTLSPIPHIPRSPYKFPSSPLRIPGGNIYISPLKSPYKISEGLPTPTKMTPRSRILVSIGESFGTSEKFQKINQMVCNSDRVLKRSAEGSNPPKPLKKLRFDIEGSDEADGSKHLPGESKFQQKLAEMTSTRTRMQKQKMNDSMDTSNKEEK

binding: binds
B4: SIN3B (protein, UniProt O75182 1-1162)
chain: MAHAGGGSGGSGAGGPAGRGLSGARWGRSGSAGHEKLPVHVEDALTYLDQVKIRFGSDPATYNGFLEIMKEFKSQSIDTPGVIRRVSQLFHEHPDLIVGFNAFLPLGYRIDIPKNGKLNIQSPLTSQENSHNHGDGAEDFKQQVPYKEDKPQVPLESDSVEFNNAISYVNKIKTRFLDHPEIYRSFLEILHTYQKEQLNTRGRPFRGMSEEEVFTEVANLFRGQEDLLSEFGQFLPEAKRSLFTGNGPCEMHSVQKNEHDKTPEHSRKRSRPSLLRPVSAPAKKKMKLRGTKDLSIAAVGKYGTLQEFSFFDKVRRVLKSQEVYENFLRCIALFNQELVSGSELLQLVSPFLGKFPELFAQFKSFLGVKELSFAPPMSDRSGDGISREIDYASCKRIGSSYRALPKTYQQPKCSGRTAICKELDHWTLLQGSWTDDYCMSKFKNTCWIPGYSAGVLNDTWVSFPSWSEDSTFVSSKKTPYEEQLHRCEDERFELDVVLETNLATIRVLESVQKKLSRMAPEDQEKFRLDDSLGGTSEVIQRRAIYRIYGDKAPEIIESLKKNPVTAVPVVLKRLKAKEEEWREAQQGFNKIWREQYEKAYLKSLDHQAVNFKQNDTKALRSKSLLNEIESVYDEHQEQHSEGRSAPSSEPHLIFVYEDRQILEDAAALISYYVKRQPAIQKEDQGTIHQLLHQFVPSLFFSQQLDLGASEESADEDRDSPQGQTTDPSERKKPAPGPHSSPPEEKGAFGDAPATEQPPLPPPAPHKPLDDVYSLFFANNNWYFFLRLHQTLCSRLLKIYRQAQKQLLEYRTEKEREKLLCEGRREKGSDPAMELRLKQPSEVELEEYYPAFLDMVRSLLEGSIDPTQYEDTLREMFTIHAYVGFTMDKLVQNIARQLHHLVSDDVCLKVVELYLNEKKRGAAGGNLSSRCVRAARETSYQWKAERCMADENCFKVMFLQRKGQVIMTIELLDTEEAQTEDPVEVQHLARYVEQYVGTEGASSSPTEGFLLKPVFLQRNLKKFRRRWQSEQARALRGEARSSWKRLVGVESACDVDCRFKLSTHKMVFIVNSEDYMYRRGTLCRAKQVQPLVLLRHHQHFEEWHSRWLEDNVTVEAASLVQDWLMGEEDEDMVPCKTLCETVHVHGLPVTRYRVQYSRRPASP

From paper PMC5035054
